Reference: PubChem BioAssay AID330 (DTP/NCI, 2004)
The list is a part of this screen's results and no random one: it is rich in T/C values a quarter to a half above the control, in often repeated tests (any T/C) and in doses without a T/C. Further doses and runs are listed elsewhere. T/C gives the treated animals as a percentage of the vehicle group. Some doses have a count of surviving animals in place of a T/C: the source holds a T/C of zero for them, seemingly a mark for toxic or unscored doses. Some survivor counts are full or nearly so, which does not show that the dose was tolerated: the source hardly ever lists a survival T/C far under the control, and the zero likely stands for such cases as well. Survivors were counted at the toxicity check, usually on the fifth day, unless a day is given; later deaths do not show. Schedule codes are those of the source, taken here to give the interval after Q, in days (D) or hours (H), and the number of doses after X. Marks such as (2×) say how often a value occurs here. For survival time, this PubChem deposit counts one and a half times the control or more as active, and values a quarter to a half above the control carry no call in these data; other NCI protocols may use other cut-offs. Some T/C values carry the count of animals alive at the toxicity check (mostly the fifth day); without a count, all were alive then.

Tested on: P388 leukemia ip, CD2F1 mice, survival T/C
Test: NCI In Vivo Anticancer Drug Screen. Data for tumor model P388 Leukemia (intraperitoneal) in CD2F1 (CDF1) mice
Details: T/C endpoint: median survival time, higher T/C = longer survival

CC(=O)[C@]1(O)Cc2c(O)c3c(c(O)c2[C@@H](OC2CC(N)C(O)C(C)O2)C1)C(=O)c1c(O)cccc1C3=O (stereo partly drawn) was tested, and the T/C (dose: 0.05 mg/kg/injection, schedule: Q04DX003 (ip), vehicle: saline) was 127 % of control, the T/C (dose: 0.08 mg/kg/injection, schedule: Q04DX003 (ip), vehicle: saline) was 140 % of control and the T/C (dose: 0.08 mg/kg/injection, schedule: Q04DX003 (ip), vehicle: water) was 134 % of control. The T/C (dose: 0.13 mg/kg/injection, schedule: Q04DX003 (ip), vehicle: saline, evaluated on day 45) was 128 % of control, the T/C (dose: 0.13 mg/kg/injection, schedule: Q04DX003 (ip), vehicle: saline, evaluated on day 60) was 142 % of control and the T/C (dose: 0.13 mg/kg/injection, schedule: Q04DX003 (ip), vehicle: water) was 143 % of control. The T/C (dose: 0.14 mg/kg/injection, schedule: Q04DX003 (ip), vehicle: saline) was 136 % of control, the T/C (dose: 0.16 mg/kg/injection, schedule: Q01DX001 (ip), vehicle: saline) was 142 % of control and the T/C (dose: 0.16 mg/kg/injection, schedule: Q04DX003 (ip), vehicle: water) was 135 % of control. The T/C (dose: 0.2 mg/kg/injection, schedule: Q04DX003 (ip), vehicle: saline, evaluated on day 30) was 137 % of control, the T/C (dose: 0.2 mg/kg/injection, schedule: Q04DX003 (ip), vehicle: saline, evaluated on day 60) was 133 % of control and the T/C (dose: 0.21 mg/kg/injection, schedule: Q04DX003 (ip), vehicle: water) was 149 % of control. For the same compound, the T/C (dose: 0.22 mg/kg/injection, schedule: Q04DX003 (ip), vehicle: saline, evaluated on day 45) was 144 % of control, the T/C (dose: 0.22 mg/kg/injection, schedule: Q04DX003 (ip), vehicle: saline, evaluated on day 60) was 149 % of control and the T/C (dose: 0.23 mg/kg/injection, schedule: Q01DX009 (ip), vehicle: saline) was 131 % of control. The T/C (dose: 0.23 mg/kg/injection, schedule: Q04DX003 (ip), vehicle: saline) was 136 % of control, the T/C (dose: 0.26 mg/kg/injection, schedule: Q01DX001 (ip), vehicle: saline, evaluated on day 45) was 144 % of control and the T/C (dose: 0.26 mg/kg/injection, schedule: Q01DX001 (ip), vehicle: saline, evaluated on day 60) was 148 % of control. For the same compound, the T/C (dose: 0.4 mg/kg/injection, schedule: Q04DX003 (ip), vehicle: saline) was 127 % of control, the T/C (dose: 0.6 mg/kg/injection, schedule: Q04DX003 (ip), vehicle: saline) was 148 % of control and the survivor count (dose: 0.65 mg/kg/injection, schedule: Q01DX009 (ip), vehicle: saline) was 10 of 10. The T/C (dose: 0.8 mg/kg/injection, schedule: Q04DX003 (ip), vehicle: saline) was 142 % of control, the T/C (dose: 1.0 mg/kg/injection, schedule: Q04DX003 (ip), vehicle: water, evaluated on day 30) was 125 % of control and the T/C (dose: 1.0 mg/kg/injection, schedule: Q04DX003 (ip), vehicle: water, evaluated on day 35) was 128 % of control. For the same compound, the survivor count (dose: 1.2 mg/kg/injection, schedule: Q01DX001 (ip), vehicle: saline) was 10 of 10, the T/C (dose: 1.6 mg/kg/injection, schedule: Q04DX003 (ip), vehicle: saline) was 134 % of control and the survivor count (dose: 1.8 mg/kg/injection, schedule: Q01DX001 (ip), vehicle: saline) was 4 of 10. For the same compound, the survivor count (dose: 2.0 mg/kg/injection, schedule: Q01DX001 (ip), vehicle: saline) was 10 of 10, the survivor count (dose: 2.0 mg/kg/injection, schedule: Q04DX003 (ip), vehicle: saline) was 8 of 8 and the T/C (dose: 2.0 mg/kg/injection, schedule: Q04DX003 (ip), vehicle: water) was 135 % of control. The survivor count (dose: 2.5 mg/kg/injection, schedule: Q04DX003 (ip), vehicle: saline) was 8 of 8, the survivor count (dose: 3.0 mg/kg/injection, schedule: Q01DX001 (ip), vehicle: saline) was 0 of 10 and the survivor count (dose: 4.0 mg/kg/injection, schedule: Q04DX003 (ip), vehicle: water) was 8 of 8 on day 9 (2×). The T/C (dose: 4.63 mg/kg/injection, schedule: Q04DX003 (oral), vehicle: saline) was 137 % of control, the survivor count (dose: 5.56 mg/kg/injection, schedule: Q01DX001 (oral), vehicle: saline) was 5 of 10 and the survivor count (dose: 9.26 mg/kg/injection, schedule: Q01DX001 (oral), vehicle: saline) was 3 of 10. For the same compound, the survivor count (dose: 15.4 mg/kg/injection, schedule: Q01DX001 (oral), vehicle: saline) was 5 of 10, the T/C (dose: 7.0 micrograms/kg/injection, schedule: Q04DX003 (ip), vehicle: saline) was 127 % of control and the T/C (dose: 12.5 micrograms/kg/injection, schedule: Q04DX003 (ip), vehicle: saline) was 131 % of control. The T/C (dose: 100.0 micrograms/kg/injection, schedule: Q04DX003 (ip), vehicle: saline) was 125 % of control, the T/C (dose: 250.0 micrograms/kg/injection, schedule: Q04DX003 (ip), vehicle: saline) was 130 % of control and the T/C (dose: 400.0 micrograms/kg/injection, schedule: Q04DX003 (ip), vehicle: saline) was 130 % of control. For the same compound, the T/C (dose: 1600.0 micrograms/kg/injection, schedule: Q04DX003 (ip), vehicle: saline) was 144 % of control [5 of 6 alive on day 9].
